Measurements taken from patent US20260079169A1, “VOLATILE ORGANIC COMPOUNDS AS MARKERS FOR CELLULAR COMMUNICATION” (Technion Research and Development Foundation Limited, priority 2020, published 2026).

System: different-cell pairs of BEAS-2B, A549, H1299, H1975 without physical contact under a mutual headspace
Assay: VOCs headspace analysis (ITEX GC-MS) of different-cell pair co-culture headspace groups (Format-3), bulk cell samples
Assay type: cell-based, human
Design: key to Category (VOC increased or decreased relative to the control): ↑: Increased; ↓: decreased; ↑*: <0.01; ↑**: <0.001
Conditions: different-cell pair co-culture headspace (Format-3), averaged peak area (n = 3)

O=C(O)CC(C(=O)O)c1ccccc1 (stereo not drawn) [Butanedioic acid, phenyl-]
Category (VOC increased or decreased relative to the control) (72 h): ↑* (↑*: <0.01)

CCCC(=N)N [Butanimidamide]
Category (VOC increased or decreased relative to the control) (72 h): ↑

CC(C)CCOC(=O)C1CCC1 [Cyclobutanecarboxylic acid, 3-methylbutyl ester]
Category (VOC increased or decreased relative to the control) (72 h): ↑* (↑*: <0.01)

OC1CCCCC1 [Cyclohexanol]
Category (VOC increased or decreased relative to the control) (48 h): ↑* (↑*: <0.01)

CCCCCCC(C)CC(C)C (stereo not drawn) [Decane, 2,4-dimethyl-]
Category (VOC increased or decreased relative to the control) (48 h): ↓

CC(C)CCCC(C)CCC(C)C (stereo not drawn) [Decane, 2,5,9-trimethyl-]
Category (VOC increased or decreased relative to the control) (72 h): ↓

CCCCCC(C)CC(C)(C)CC (stereo not drawn) [Decane, 3,3,5-trimethyl-]
Category (VOC increased or decreased relative to the control) (24 h): ↑

COC [Dimethyl ether]
Category (VOC increased or decreased relative to the control) (48 h): ↑

CCC(C)CCCC(C)CCCC(C)C (stereo not drawn) [Dodecane, 2,6,10-trimethyl-]
Category (VOC increased or decreased relative to the control) (72 h): ↑

CCC(C)CCC(C)CCCCC(C)C (stereo not drawn) [Dodecane, 2,7,10-trimethyl-]
Category (VOC increased or decreased relative to the control) (72 h): ↓

CCCCCCCCCCCC [Dodecane]
Category (VOC increased or decreased relative to the control) (48 h): ↓

CCCCCCCCCCCCOCCCCCCCC [Dodecyl octyl ether]
Category (VOC increased or decreased relative to the control) (72 h): ↑

O=COCC(=O)c1ccccc1 [Ethanone, 2-(formyloxy)-1-phenyl-]
Category (VOC increased or decreased relative to the control) (24 h): ↑* (↑*: <0.01)

CC=COCC [Ethyl-1-propenyl ether]
Category (VOC increased or decreased relative to the control) (72 h): ↑* (↑*: <0.01)

C#CF [Ethyne, fluoro-]
Category (VOC increased or decreased relative to the control) (48 h): ↑

N#C/C=C/C#N [Fumaronitrile]
Category (VOC increased or decreased relative to the control) (24 h): ↑ | Category (VOC increased or decreased relative to the control) (72 h): ↑

CCCCCCCCCCCCCCC(C)C [Hexadecane, 2-methyl-]
Category (VOC increased or decreased relative to the control) (72 h): ↑* (↑*: <0.01)

CCCCCCCCCCCCCCCC [Hexadecane]
Category (VOC increased or decreased relative to the control) (24 h): ↑* (↑*: <0.01)

CCCC(C)(C)CC [Hexane, 3,3-dimethyl-]
Category (VOC increased or decreased relative to the control) (48 h): ↓

CC[C@H](c1ccc(O)cc1)[C@@H](CC)c1ccc(O)cc1 [Hexestrol]
Category (VOC increased or decreased relative to the control) (72 h): ↑

COC(=O)[C@H](C)N [L-Alanine, methyl ester]
Category (VOC increased or decreased relative to the control) (72 h): ↑

CC(O)(C(=O)O)C(=O)O [Methyltartronic acid]
Category (VOC increased or decreased relative to the control) (72 h): ↑* (↑*: <0.01)

CNCCS(=O)(=O)O [N-Methyltaurine]
Category (VOC increased or decreased relative to the control) (72 h): ↑

CC(C)(C)C [Neopentane]
Category (VOC increased or decreased relative to the control) (48 h): ↑

CCCC(C)CC(C)CC (stereo not drawn) [Octane, 3,5-dimethyl-]
Category (VOC increased or decreased relative to the control) (24 h): ↑* (↑*: <0.01)

CCCCCCCCCCCCCCC [Pentadecane]
Category (VOC increased or decreased relative to the control) (48 h): ↑* (↑*: <0.01)

CCCC(C)C=O (stereo not drawn) [Pentanal, 2-methyl-]
Category (VOC increased or decreased relative to the control) (48 h): ↑

CC(C)C(C)C(C)(C)C (stereo not drawn) [Pentane, 2,2,3,4-tetramethyl-]
Category (VOC increased or decreased relative to the control) (48 h): ↑

CCC(C)(C)CC [Pentane, 3,3-dimethyl-]
Category (VOC increased or decreased relative to the control) (72 h): ↑

CC(C)(C)c1ccc(C(C)(C)C)c(O)c1 [Phenol, 2,5-bis(1,1-dimethylethyl)-]
Category (VOC increased or decreased relative to the control) (48 h): ↑* (↑*: <0.01)

Cc1cc(-c2ccccc2)nc(-c2ccccc2O)n1 [Phenol, 2-(4-methyl-6-phenyl-2-pyrimidinyl)-]
Category (VOC increased or decreased relative to the control) (72 h): ↑* (↑*: <0.01)

COC(C)(C)C [Propanc, 2-methoxy-2-methyl-]
Category (VOC increased or decreased relative to the control) (72 h): ↑* (↑*: <0.01)

O=S=O [Sulfur dioxide]
Category (VOC increased or decreased relative to the control) (48 h): ↑* (↑*: <0.01)

CCCOC(OCCC)OCCC [Tripropyl orthoformate]
Category (VOC increased or decreased relative to the control) (48 h): ↑* (↑*: <0.01)

CCCCCC(C)CCC(C)CC (stereo not drawn) [Undecane, 3,6-dimethyl-]
Category (VOC increased or decreased relative to the control) (48 h): ↑* (↑*: <0.01)

CCCCC(C)CCC(C)CCC (stereo not drawn) [Undecane, 4,7-dimethyl-]
Category (VOC increased or decreased relative to the control) (24 h): ↑

CC(C)C(O)C(O)C(C)C (stereo not drawn) [meso-2,5-Dimethyl-3,4-hexanediol]
Category (VOC increased or decreased relative to the control) (72 h): ↑

CC(C)(N)C(=O)O [α-Aminoisobutanoic acid]
Category (VOC increased or decreased relative to the control) (72 h): ↓
